# Measured data: PubChem BioAssay AID1053208 (Peter MacCallum Cancer Centre, 2014)
# Test: 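Synthetic lethal interactions between gene loss and doxorubicin in osteosarcoma cells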 (primary screen)
# Cell system: mouse osteosarcoma cells, early-passage culture from an engineered mouse model of fibroblastic bone tumour
# Reagent: siRNA pool against mouse genes, 40 nM
# Duration: about 120 h (48 h before drug, then 72 h with drug)
# Treatment: doxorubicin 100 nM for 72 h, roughly 30-40% inhibitory dose
# Measured: 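Luminescent ATP signal taken as viability with or without 100 nM doxorubicin for 72 h; mean of two wells set against non-targeting siRNA and turned into robust z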
# Direction: viability z-score with doxorubicin: higher = more viable cells under doxorubicin; viability z-score without drug: higher = more viable cells with knock-down alone
# Rule for the call: 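a pool counts as active when its viability z-score with doxorubicin is -2 or below and its z-score without drug lies between -2 and 2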
# Shown is a random part of about 17,000 deposited reagents. Of all reagents, 788 (4.7%) were called active. 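Calls rest on z-score classes alone; an extra cut-off of viability at most 70% of control was not applied to them.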 Reagents against one gene are numbered here. Further read-outs or replicates are left out here.
gene,reagent no.,combined z-score class,viability z-score with doxorubicin,viability z-score without drug,call
Npas4,1,no change with or without drug,-0.56,0.51,inactive
Chst7,1,no change with or without drug,-0.22,0.51,inactive
C1qc,1,no change with or without drug,-0.45,-1.52,inactive
Htr6,1,no change with or without drug,0.67,-1.69,inactive
Or5d39,1,no change with or without drug,-1.35,-0.84,inactive
Cdc50b,1,no change with or without drug,0.45,-1.01,inactive
Cpm,1,no change with or without drug,-0.67,0.17,inactive
Gli1,1,no change with or without drug,-1.46,-1.52,inactive
Dennd4b,1,no change with or without drug,-1.12,-0.34,inactive
D130005J21RIK,1,no change with or without drug,-1.57,-0.34,inactive
Ovgp1,1,no change with or without drug,-0.22,0.51,inactive
Mtss1,1,no change with or without drug,1.35,0.51,inactive
Eda,1,no change with or without drug,1.12,-0.17,inactive
Alas1,1,no change with or without drug,0.22,-1.01,inactive
4933408B17,1,high cell count without drug only,1.35,2.53,inactive
Cxcr2,1,no change with or without drug,0.9,-0.34,inactive
Stx18,1,no change with or without drug,0.45,0.17,inactive
Or8c17,1,no change with or without drug,0.45,1.35,inactive
Tns4,1,no change with or without drug,1.12,-0.17,inactive
Or10d5j,1,no change with or without drug,-0.9,0.51,inactive
Chchd2l2,1,no change with or without drug,-0.22,1.01,inactive
Tor4a,1,no change with or without drug,0.9,0.84,inactive
Or51s1,1,no change with or without drug,0,-0.17,inactive
Gdi2,1,high cell count with doxorubicin only,2.02,-0.84,inactive
Gdi2,2,no change with or without drug,0.34,0.67,inactive

The list goes on (3 carried over from the part before).
gene,reagent no.,combined z-score class,viability z-score with doxorubicin,viability z-score without drug,call
Or51s1,1,no change with or without drug,0,-0.17,inactive
Gdi2,1,high cell count with doxorubicin only,2.02,-0.84,inactive
Gdi2,2,no change with or without drug,0.34,0.67,inactive
Tmed2,1,no change with or without drug,1.12,-0.17,inactive
Klk15,1,no change with or without drug,-0.45,0.51,inactive
Klb,1,no change with or without drug,0.22,0.34,inactive
Rps11,1,low cell count with and without drug,-6.97,-6.41,inactive
9330119M13Rik,1,no change with or without drug,0.22,-0.17,inactive
Anapc1,1,no change with or without drug,-1.57,-1.85,inactive
Zswim2,1,no change with or without drug,0.34,-0.17,inactive
Psma1,1,low cell count with doxorubicin only,-2.25,-0.51,active
Anapc7,1,no change with or without drug,-0.22,-0.17,inactive
Cldn14,1,no change with or without drug,0.34,-0.51,inactive
Cfap95,1,no change with or without drug,-0.11,0.51,inactive
Appbp2,1,no change with or without drug,0.34,-1.35,inactive
Mcm9,1,high cell count without drug only,1.57,2.02,inactive
Map6d1,1,no change with or without drug,1.35,0,inactive
Lrrc20,1,low cell count with doxorubicin only,-2.59,-1.85,active
Bco2,1,no change with or without drug,0.9,0.84,inactive
Upk2,1,no change with or without drug,-1.57,-1.18,inactive
Mdk,1,no change with or without drug,0.67,0.17,inactive
Fam3d,1,no change with or without drug,-1.46,-0.34,inactive
Igf1,1,low cell count without drug only,0.45,-2.53,inactive
Smox,1,no change with or without drug,0.45,1.01,inactive
Mbip,1,no change with or without drug,1.12,-0.51,inactive
Tlr6,1,no change with or without drug,0.9,0,inactive
Dmtn,1,no change with or without drug,0,-0.51,inactive
Cldn11,1,no change with or without drug,0.9,-0.17,inactive
